Reference: patent publication US7985771B2, “Furanone derivatives” (Monsanto Technology LLC, priority 2002, dated 2011)
Some entries share one result that the patent states for a list of compounds. For at least one compound, name, drawing or mass did not settle the structure.

How the values were obtained:
[1] = tested on: IL-1beta release from a mouse microglial cell line; experiment: Interleukin-1 beta microglial cell assay; type: cell-based; conditions: LPS and IFN gamma stimulation, 24 hours; read-out: inhibition of IL-1beta induction, EC50
Protocol: This assay measures the release of IL-1β from a mouse microglial cell line following an inflammatory challenge with LPS and interferon-gamma. The ability of test articles to inhibit microglial cell activation and IL-1beta release is determined by co-incubation of the test article with the inflammatory challenge. Cytokine release is measured using a mouse IL-1β ELISA and cell toxicity is determined using Cell Tracker Green (a fluorescent dye that measures cell viability).
Mouse microglial cells were seeded in poly-D-lysine coated 96-well plates at a density of 10,000 cells/well and allowed to attach for 24 hours. Cells were stimulated by addition of LPS (10 μg/ml) and IFN gamma (10 ng/ml) in the presence or absence of test article. The cells were then incubated for 24 hours at 37° C., after which time the media was removed and used for cytokine determination as described below.
Viability of mouse microglial cells after exposure to the test article was determined using a fluorescent viability dye, Cell Tracker Green. Cell Tracker Green was used at a working concentration of 5 μM in 1× HBSS. […] 100 μl fresh HBSS was added to each well and the plate was read on a Fluoroskan plate reader using an excitation wavelength of 485 nm and an emission wavelength of 538 nm. […]
9. […] Each plate was read with the Spectramax once at 450 nm. […]

[2] = tested on: ELAM (E-selectin) expression in endothelial cells; experiment: E-selectin (ELAM) cell inflammation assay; type: cell-based; conditions: LPS and IL-1β stimulation; read-out: reduction of expression of ELAM, EC50
Protocol: Endothelial-Leukocyte Adhesion Molecule (ELAM), also known as E-selectin, is expressed on the surface of endothelial cells. In this assay, lipopolysaccharide (LPS) and IL-1β are used to stimulate the expression of ELAM; test agents are tested for their abilities to reduce this expression, in accordance with studies showing that reduction of leukocyte adhesion to endothelial cell surface is associated with decreased cellular damage (e.g., Takada, M., Et al., Transplantation 64: 1520-25, 1997; Steinberg, J. B., et al., J. Heart Lung Trans. 13:306-313, 1994).
Endothelial cells may be selected from any of a number of sources and cultured according to methods known in the art; including, for example, coronary artery endothelial cells, human brain microvascular endothelial cells (HBMEC; Hess, D.C., et al., Neurosci. Left. 213(1): 37-40, 1996), or lung endothelial cells. Cells are conveniently cultured in 96-well plates. Cells are stimulated by adding a solution to each well containing 10 μg/ml LPS and 100 pg/ml IL-1β for 6 hours in the presence of test agent (specific concentrations and time may be adjusted depending on the cell type). […] Wells are allowed to develop for 35 minutes, before measurement at 402 nm in a Fluoroskan® Reader with shake program for 10 seconds. Positive results are recorded as a decrease in ELAM concentration in tested wells, as compared to control wells.

CCOC(=O)C1(CSc2cccc[n+]2[O-])OC(=O)C(O)=C1Sc1cccc[n+]1[O-] (centres unmarked) [4-Hydroxy-5-oxo-3-(1-oxy-pyridin-2-ylsulfanyl)-2-(1-oxy-pyridin-2-ylsulfanylmethyl)-2,5-dihydro-furan-2-carboxylic acid ethyl ester]
EC50 [1]: ≤ 20 µM | EC50 [2]: ≤ 30 µM
